Measurements reported in PMC11252262.

By UniProt entry, the sequences of proteins in these tests, tags left out.
UniProt E9Q555: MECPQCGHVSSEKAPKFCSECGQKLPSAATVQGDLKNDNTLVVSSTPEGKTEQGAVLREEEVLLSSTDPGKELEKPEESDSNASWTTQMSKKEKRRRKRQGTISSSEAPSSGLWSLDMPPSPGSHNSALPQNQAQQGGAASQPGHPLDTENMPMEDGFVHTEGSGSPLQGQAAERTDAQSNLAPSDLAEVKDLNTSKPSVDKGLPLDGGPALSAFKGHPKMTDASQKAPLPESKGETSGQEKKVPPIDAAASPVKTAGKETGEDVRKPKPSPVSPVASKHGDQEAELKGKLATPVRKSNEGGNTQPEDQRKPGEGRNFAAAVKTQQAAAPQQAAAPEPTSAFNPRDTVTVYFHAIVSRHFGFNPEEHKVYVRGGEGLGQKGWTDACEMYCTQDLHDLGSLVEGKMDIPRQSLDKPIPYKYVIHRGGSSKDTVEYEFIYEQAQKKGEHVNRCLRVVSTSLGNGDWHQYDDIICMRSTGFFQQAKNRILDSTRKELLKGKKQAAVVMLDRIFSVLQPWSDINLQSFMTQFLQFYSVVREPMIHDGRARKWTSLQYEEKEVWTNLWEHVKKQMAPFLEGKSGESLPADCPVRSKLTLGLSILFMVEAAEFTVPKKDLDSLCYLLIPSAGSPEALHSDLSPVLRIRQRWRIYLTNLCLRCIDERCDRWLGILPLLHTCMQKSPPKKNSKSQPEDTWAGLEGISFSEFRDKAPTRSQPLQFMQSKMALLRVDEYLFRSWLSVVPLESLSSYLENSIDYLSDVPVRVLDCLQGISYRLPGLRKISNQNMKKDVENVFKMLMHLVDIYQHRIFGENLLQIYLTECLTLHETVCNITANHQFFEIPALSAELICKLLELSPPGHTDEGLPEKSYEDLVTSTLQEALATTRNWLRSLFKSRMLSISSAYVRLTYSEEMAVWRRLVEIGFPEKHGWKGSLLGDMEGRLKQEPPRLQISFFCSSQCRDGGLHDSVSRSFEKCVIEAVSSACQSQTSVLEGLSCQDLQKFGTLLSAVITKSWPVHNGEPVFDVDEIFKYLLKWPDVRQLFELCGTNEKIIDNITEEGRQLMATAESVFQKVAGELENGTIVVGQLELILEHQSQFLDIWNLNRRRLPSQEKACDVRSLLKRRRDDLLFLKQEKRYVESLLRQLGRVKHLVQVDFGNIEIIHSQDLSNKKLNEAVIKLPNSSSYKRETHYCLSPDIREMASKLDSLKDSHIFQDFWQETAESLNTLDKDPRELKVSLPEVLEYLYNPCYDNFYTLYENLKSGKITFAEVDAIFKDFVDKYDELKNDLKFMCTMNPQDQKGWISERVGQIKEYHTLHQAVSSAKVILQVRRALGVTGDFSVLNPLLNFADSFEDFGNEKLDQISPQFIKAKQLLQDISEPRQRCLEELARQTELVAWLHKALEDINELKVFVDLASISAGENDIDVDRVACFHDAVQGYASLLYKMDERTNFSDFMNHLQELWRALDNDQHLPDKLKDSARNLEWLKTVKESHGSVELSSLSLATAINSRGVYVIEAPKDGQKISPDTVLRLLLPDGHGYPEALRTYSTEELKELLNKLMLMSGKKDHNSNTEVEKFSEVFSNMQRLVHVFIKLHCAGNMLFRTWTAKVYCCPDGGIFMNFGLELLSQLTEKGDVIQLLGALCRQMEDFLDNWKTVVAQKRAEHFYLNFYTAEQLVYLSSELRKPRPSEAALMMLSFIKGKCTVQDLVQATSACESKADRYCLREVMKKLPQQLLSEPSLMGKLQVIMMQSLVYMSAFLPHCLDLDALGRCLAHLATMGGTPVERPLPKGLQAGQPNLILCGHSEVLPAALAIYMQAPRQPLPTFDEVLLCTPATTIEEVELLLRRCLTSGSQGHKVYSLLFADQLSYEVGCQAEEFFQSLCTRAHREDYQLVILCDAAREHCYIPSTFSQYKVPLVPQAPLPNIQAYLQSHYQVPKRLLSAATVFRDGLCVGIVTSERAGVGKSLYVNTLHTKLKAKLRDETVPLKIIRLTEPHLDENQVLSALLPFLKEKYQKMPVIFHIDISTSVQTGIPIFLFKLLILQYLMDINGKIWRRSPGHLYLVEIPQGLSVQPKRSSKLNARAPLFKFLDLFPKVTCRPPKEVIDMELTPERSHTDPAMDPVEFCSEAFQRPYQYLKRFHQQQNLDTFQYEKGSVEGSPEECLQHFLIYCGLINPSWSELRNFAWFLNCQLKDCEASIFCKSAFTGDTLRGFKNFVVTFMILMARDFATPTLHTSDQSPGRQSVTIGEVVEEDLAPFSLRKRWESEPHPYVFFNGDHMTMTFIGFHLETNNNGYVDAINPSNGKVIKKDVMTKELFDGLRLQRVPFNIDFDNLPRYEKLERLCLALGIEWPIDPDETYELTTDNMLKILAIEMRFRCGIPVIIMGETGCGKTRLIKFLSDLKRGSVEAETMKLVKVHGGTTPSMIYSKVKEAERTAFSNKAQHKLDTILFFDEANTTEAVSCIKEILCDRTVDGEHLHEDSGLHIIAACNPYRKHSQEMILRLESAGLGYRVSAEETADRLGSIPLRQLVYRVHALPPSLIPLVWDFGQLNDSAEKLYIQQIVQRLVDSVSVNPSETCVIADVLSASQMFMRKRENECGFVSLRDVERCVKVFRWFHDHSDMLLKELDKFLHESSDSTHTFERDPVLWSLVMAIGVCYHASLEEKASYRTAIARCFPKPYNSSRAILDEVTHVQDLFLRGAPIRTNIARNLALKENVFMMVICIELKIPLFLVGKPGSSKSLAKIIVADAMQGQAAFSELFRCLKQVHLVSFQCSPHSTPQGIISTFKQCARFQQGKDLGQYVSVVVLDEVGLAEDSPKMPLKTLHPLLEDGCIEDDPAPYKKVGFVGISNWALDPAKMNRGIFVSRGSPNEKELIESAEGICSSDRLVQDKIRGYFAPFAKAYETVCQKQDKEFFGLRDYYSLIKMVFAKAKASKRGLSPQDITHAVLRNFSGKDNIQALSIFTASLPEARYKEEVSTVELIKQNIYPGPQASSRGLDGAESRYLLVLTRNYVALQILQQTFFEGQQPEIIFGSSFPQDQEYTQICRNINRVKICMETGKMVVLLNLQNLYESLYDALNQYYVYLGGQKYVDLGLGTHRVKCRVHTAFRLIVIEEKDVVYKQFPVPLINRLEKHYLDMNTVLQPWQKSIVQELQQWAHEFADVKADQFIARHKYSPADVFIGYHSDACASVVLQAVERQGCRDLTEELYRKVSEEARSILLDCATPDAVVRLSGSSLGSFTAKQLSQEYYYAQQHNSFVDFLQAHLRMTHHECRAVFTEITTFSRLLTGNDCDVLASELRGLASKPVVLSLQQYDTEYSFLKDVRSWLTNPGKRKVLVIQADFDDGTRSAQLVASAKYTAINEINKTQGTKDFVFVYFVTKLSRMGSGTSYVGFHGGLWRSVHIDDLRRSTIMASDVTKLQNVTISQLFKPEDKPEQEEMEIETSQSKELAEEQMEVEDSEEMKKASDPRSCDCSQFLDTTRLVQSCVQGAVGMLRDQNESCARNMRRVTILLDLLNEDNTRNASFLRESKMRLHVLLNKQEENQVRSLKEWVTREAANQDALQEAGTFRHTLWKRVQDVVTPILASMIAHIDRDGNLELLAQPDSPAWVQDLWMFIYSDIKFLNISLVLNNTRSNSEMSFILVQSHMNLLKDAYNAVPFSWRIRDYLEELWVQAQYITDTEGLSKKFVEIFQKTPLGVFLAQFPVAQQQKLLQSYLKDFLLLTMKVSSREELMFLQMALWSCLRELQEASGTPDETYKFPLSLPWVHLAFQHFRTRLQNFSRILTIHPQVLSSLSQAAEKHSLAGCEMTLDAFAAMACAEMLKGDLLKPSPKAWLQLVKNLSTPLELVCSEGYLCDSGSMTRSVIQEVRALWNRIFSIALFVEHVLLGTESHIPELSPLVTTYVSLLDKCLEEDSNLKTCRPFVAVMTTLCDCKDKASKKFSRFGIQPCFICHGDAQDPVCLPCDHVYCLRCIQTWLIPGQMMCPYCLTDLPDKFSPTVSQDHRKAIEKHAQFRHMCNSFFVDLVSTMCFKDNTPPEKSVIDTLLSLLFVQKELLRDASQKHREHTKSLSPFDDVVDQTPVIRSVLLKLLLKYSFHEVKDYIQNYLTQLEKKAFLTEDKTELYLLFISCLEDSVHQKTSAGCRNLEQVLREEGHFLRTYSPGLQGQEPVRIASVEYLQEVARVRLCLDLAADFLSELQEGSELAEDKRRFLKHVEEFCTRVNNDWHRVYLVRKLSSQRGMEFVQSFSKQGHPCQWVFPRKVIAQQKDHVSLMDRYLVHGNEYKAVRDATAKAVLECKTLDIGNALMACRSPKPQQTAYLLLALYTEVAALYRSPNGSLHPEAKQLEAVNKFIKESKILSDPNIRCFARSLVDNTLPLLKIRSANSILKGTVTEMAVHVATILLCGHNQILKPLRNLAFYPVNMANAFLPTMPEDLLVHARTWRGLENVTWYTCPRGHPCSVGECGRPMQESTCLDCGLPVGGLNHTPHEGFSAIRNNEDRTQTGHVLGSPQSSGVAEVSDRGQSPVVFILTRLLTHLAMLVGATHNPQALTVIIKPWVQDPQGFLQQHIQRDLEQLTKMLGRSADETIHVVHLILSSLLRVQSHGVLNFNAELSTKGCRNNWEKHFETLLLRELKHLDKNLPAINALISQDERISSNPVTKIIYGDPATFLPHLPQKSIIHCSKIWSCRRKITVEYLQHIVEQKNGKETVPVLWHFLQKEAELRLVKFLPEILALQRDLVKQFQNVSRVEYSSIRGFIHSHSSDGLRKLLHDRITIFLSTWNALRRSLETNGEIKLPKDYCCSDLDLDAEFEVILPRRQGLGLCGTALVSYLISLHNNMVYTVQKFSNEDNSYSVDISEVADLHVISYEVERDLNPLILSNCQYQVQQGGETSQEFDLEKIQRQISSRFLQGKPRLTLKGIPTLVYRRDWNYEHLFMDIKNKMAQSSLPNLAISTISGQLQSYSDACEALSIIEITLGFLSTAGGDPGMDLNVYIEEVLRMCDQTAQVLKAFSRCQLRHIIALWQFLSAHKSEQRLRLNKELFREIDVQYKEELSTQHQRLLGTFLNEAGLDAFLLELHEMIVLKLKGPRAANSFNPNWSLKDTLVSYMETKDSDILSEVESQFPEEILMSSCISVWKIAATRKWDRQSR
UniProt O35718: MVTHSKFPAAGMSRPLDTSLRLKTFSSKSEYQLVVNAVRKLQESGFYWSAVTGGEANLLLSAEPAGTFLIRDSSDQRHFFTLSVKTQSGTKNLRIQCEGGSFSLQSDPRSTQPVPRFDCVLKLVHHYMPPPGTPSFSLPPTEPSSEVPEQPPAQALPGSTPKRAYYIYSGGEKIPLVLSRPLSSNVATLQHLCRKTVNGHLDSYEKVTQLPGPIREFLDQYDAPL

B1: UBA7 (enzyme, UniProt Q9DBK7 1-977)
chain: MDEELYSRQLYVLGLPAMQRIQEAKVLLCGLQGLGAEVAKNLVLTGVGSLTLHDPHPTCWADLAAQCFLSEESLGRNRAEASQAQLAQLNEAVQISVHSGDITEDLLQGFQVVVLTDSKLEDQLKVGPLCHKHGVRFLMAETRGLVGRLFCDFGEDFTVLDPTEVEPMTAAIQDISQGFPGIVTLRGDTKRHSFHDGDLVIFSDIEGMVELNSCSPQSVRVQKDGSLEIGDTTTFSRYLRGGVVTEVKRPKTVRHKPLDIALLQPHVVAQNTQEVQRAHCLHQAFHVLHKFQQLHGRLPKPWDPDDAETVVELAQDLEPLKGTEEESLDEALLRTIALSSAGTLSPMAAIMGGVAAQEVLKAISRKFMPLDQWLYFDALECLPEDETLLPSPEDCQPRNCRYDGQIAVFGTDLQEKLSDQHYLLVGAGAIGCEMLKVFALVGLGVRANGGVTVADMDYIERSNLSRQFLFRPKDVRRPKAEVAAAAAHRLNPDLRATPYTCPLDPTTEDIYDDSFFSRVNGVVAALDSFQARHYVAARCTHYLKPLLEAGTQGTWGSASVFVPYVTEAYRGPASDAASEDAPYPVCTLRHIPSSMEHSVQWAQDQFEGLFRLSTETINCYQQTCTSLSATDRTETLALLQQVMGVLRTRPQTWQDCVVWALGHWQLCFHDKVLEGGTQFSSGSNKCPHPLQFDPNHDMHFLYVLAAANLYARMHGLPGSQSQPALRELLTRLLESDSRPQNLFSAEHGQEQLKELQETLDDWRKGPPLKPVLFVKDDDSNFHVDFVVAATDLRCQNYGILPVNHARIKQIVGRIIPAIATSTAVVAGLLGLELYKVVSGLRSHGTFRHSYLHLAENHFIRSAPSAPAVQSFRDLKWTCWDRLKVPAVQPERTLKSLLAHLQEEHGLKVEMLLHHQALLYSSGWSSEKQAQHLCLRVTELVQHVTGWKPKPGLKVLVFELSCEGEEEEMAFPPLHYEL
B2: TRAF1 (protein, UniProt P39428 1-409)
chain: MASSSAPDENEFQFGCPPAPCQDPSEPRVLCCTACLSENLRDDEDRICPKCRADNLHPVSPGSPLTQEKVHSDVAEAEIMCPFAGVGCSFKGSPQSMQEHEATSQSSHLYLLLAVLKEWKSSPGSNLGSAPMALERNLSELQLQAAVEATGDLEVDCYRAPCCESQEELALQHLVKEKLLAQLEEKLRVFANIVAVLNKEVEASHLALAASIHQSQLDREHILSLEQRVVELQQTLAQKDQVLGKLEHSLRLMEEASFDGTFLWKITNVTKRCHESVCGRTVSLFSPAFYTAKYGYKLCLRLYLNGDGSGKKTHLSLFIVIMRGEYDALLPWPFRNKVTFMLLDQNNREHAIDAFRPDLSSASFQRPQSETNVASGCPLFFPLSKLQSPKHAYVKDDTMFLKCIVDTSA
B3: MEX3A (protein, UniProt G3UYU0 1-520)
chain: MPSLVVSGIMERNGGFGELGCFGGSAKDRGLLEDERALQLALDQLCLLGLGEPPAPTAGEDGGGGGGGAPAQPAAPPQPAPPPPPAAAPAAPSAAPAAQTPQPPTAPKGANDAKLCALYKEAELRLKGSSNTTECVPVPTSEHVAEIVGRQGCKIKALRAKTNTYIKTPVRGEEPVFMVTGRREDVATARREIISAAEHFSMIRASRNKSGAAFGVAPALPGQVTIRVRVPYRVVGLVVGPKGATIKRIQQQTNTYIITPSRDRDPVFEITGAPGNVERAREEIETHIAVRTGKILEYNSDGDFLAGSPDAALDSRYSDAWRVHAPGCKPLSTFRQNSLGCIGECGVDSAFEAPRLSEQGGDFGYSGYLFPGYGVGKQDVYYGVAETSPPLWAGQENATPTSVLFSSASSSSSSAKARAGPPGAHRSPATSAGPEQLTGLPRRPPGEPLQGFSKLGTGGLRSPGSGRDCMVCFESEVTAALVPCGHNLFCMECAVRICERTDPECPVCHITATQAIRIFS

Molecular target: Flag-tagged RNF213 (RING finger protein 213), transgene overexpressed in Treg cells of Rnf213^Tg Foxp3^Cre mice (UniProt E9Q555)
Test: affinity purification with mass spectrometry; proteins from Treg cells of WT or Rnf213^Tg Foxp3^Cre mice immunoprecipitated with anti-Flag antibodies, eluted with 8 M urea, LC-MS

Molecule	binding
SOCS3 (from UniProt O35718 1-225)	binds
B1	binds
B2	binds
B3	binds

No constants are given. Whether binding was seen depends on the method and setting. Binding seen in cells or lysates may run through a third protein. These calls come from enrichment with a bait or labelling near it, and not all partners need be listed.
